Assay results published in PubChem BioAssay AID588590 (National Center for Advancing Translational Sciences (NCATS), 2011).
Screen size: about 390,000 compounds; about 4,000 (1%) were called active. This list was built around the results that the source calls inconclusive (neither active nor inactive); the mix of calls is not that of the screen. Calls come from the whole dose curve; as a rule, active = well fitted inhibition curve with a large enough effect; inconclusive = small, poorly fitted or top-dose-only effect, or another doubt; inactive = no such curve, though single readings can be large or run the other way. Potencies beside an inconclusive call are fits to weak or partial responses and may not hold up.

By UniProt entry, the sequences of proteins in these tests, tags left out. Where a name states a change or a piece, a line headed by the entry shows the natural chain unless it says otherwise.
UniProt Q9UNA4: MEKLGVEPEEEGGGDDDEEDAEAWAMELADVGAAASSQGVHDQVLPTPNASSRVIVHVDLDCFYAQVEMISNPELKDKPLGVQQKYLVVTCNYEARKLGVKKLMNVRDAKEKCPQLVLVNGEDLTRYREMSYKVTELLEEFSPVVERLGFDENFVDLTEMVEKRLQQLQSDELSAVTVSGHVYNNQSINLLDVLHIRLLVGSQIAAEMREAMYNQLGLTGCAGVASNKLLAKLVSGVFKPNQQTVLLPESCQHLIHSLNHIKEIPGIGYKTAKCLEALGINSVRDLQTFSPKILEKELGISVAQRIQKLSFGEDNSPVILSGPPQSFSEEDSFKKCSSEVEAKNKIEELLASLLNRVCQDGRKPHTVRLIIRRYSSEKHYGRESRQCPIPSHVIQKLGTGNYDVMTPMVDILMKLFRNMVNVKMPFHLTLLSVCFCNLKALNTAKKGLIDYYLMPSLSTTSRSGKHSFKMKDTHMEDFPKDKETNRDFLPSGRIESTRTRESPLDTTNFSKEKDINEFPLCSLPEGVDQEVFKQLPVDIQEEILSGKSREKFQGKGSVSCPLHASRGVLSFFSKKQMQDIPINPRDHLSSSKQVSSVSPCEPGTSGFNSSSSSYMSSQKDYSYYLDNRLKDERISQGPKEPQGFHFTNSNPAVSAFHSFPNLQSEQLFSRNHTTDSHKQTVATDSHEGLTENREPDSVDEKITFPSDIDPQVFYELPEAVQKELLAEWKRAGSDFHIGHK

Molecular target: DNA polymerase iota (Homo sapiens) (UniProt Q9UNA4)
Assay: qHTS for Inhibitors of Polymerase Iota
Conditions: Pol iota fluorescent replication assay, 10 min; series mostly up to 115 µM; activity, negative = inhibition: at the top concentration
In short: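 Pol iota at 10 nM preincubated 15 min with compounds at room temperature; reaction started with fluorescent substrate, 50 nM final. Fluorescence read kinetically at 0 and 10 min; buffer-only wells as negative control.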
Potency is the fitted concentration of half-maximal effect.

Row | SMILES | Potency | activity, negative = inhibition
1 | Cc1cccc(NC(=O)CSCC(=O)Nc2sccc2C#N)c1 | inconclusive: 17.8 µM [inhibitor, partial curve, poor fit] | –
2 | Cc1ccc(NC2=C(N3CCCCC3)C(=O)c3ccccc3C2=O)cc1 | inconclusive: 3.55 µM [inhibitor, full curve, poor fit] | –
3 | CC1(C)CC(=O)C(=Cc2cn(CCC#N)nc2-c2ccc(Cl)cc2)C(=O)C1 | inconclusive: 28.2 µM [inhibitor, single point] | –
4 | Cc1cc(C)c(S(=O)(=O)N2CCN(S(=O)(=O)N3CCOCC3)CC2)c(C)c1 | – | inactive: 127%
5 | O=C(N/N=C/c1ccco1)c1ccccc1OCc1ccccc1Cl | – | inactive: 16.9%
6 | COc1ccc(N2CCN(C(=O)CN3C(=O)COc4ccc(S(=O)(=O)N5CCC(C)CC5)cc43)CC2)cc1 | – | inactive: 23%
7 | O=[N+]([O-])/C=C/c1cn(Cc2ccc(F)cc2)c2ccccc12 | inconclusive: 15.8 µM [inhibitor, partial curve, poor fit] | –
8 | OC1CCCN(Cc2ccc3c(c2)Cc2ccccc2-3)C1 (configuration not stated) | inconclusive: 79.4 µM [inhibitor, partial curve] | –
9 | Cc1cccc(NC(=O)c2csnn2)n1 | – | inactive: 21.2%
10 | CCN(CCN(C)Cl)/[N+]([O-])=N/Oc1ccc([N+](=O)[O-])cc1[N+](=O)[O-] | inconclusive: 14.1 µM [inhibitor, partial curve, poor fit] | –
11 | O=C(Nc1ccccc1Cl)c1cc2ccccc2o/c1=N\O | inconclusive: 39.8 µM [inhibitor, single point] | –
12 | Cc1ccc2c(CC(=O)NNC(=O)c3ccncc3)coc2c1 | inconclusive: 15.8 µM [inhibitor, partial curve, poor fit] | –
13 | O=C(NCc1ccco1)C1CN(S(=O)(=O)c2ccccc2)CCN1S(=O)(=O)c1ccccc1 (configuration not stated) | inconclusive: 79.4 µM [inhibitor, partial curve, poor fit] | –
14 | CCOC(=O)C1C(c2ccc3c(c2)OCO3)NC(=O)NC1(O)C(F)(F)F (configuration not stated) | inconclusive: 100 µM [inhibitor, single point] | –
15 | Cc1nc2ccccc2c2oc(C(=O)N3CCN(c4ccc([N+](=O)[O-])cc4)CC3)cc12 | inconclusive: 89.1 µM [inhibitor, partial curve, poor fit] | –
16 | Cc1cn([C@H](C(=O)NCCCCCCCCCCC(=O)N2CCNCC2)[C@@H](C)O)nn1 | inconclusive: 22.4 µM [inhibitor, full curve, poor fit] | –
17 | O=S(=O)(c1cc(C(F)(F)F)ccc1Cl)N1CCCCCC1 | inconclusive: 56.2 µM [inhibitor, single point] | –
18 | CCc1ccc(NC(=O)CSc2nc(-c3cccc(OC)c3)nc3c2Cc2c(CO)cnc(C)c2O3)cc1 | inconclusive: 100 µM [inhibitor, partial curve, poor fit] | –
19 | COc1cc(NC(=O)c2ccc(N)nc2)cc(C(=O)Nc2cccc(C(F)(F)F)c2)c1 | inconclusive: 5.01 µM [inhibitor, full curve, poor fit] | –
20 | CSc1nc2c(sc3ccccc32)c(=O)n1Cc1ccc(C)cc1 | – | inactive: 6.6%
21 | COc1ccc(-c2n[nH]c(=S)n2-c2ccc(C)cc2)cc1OC | inconclusive: 89.1 µM [inhibitor, single point] | –

An excerpt from above in order of SMILES length, ascending.
Row | SMILES | Potency | activity, negative = inhibition
11 | O=C(Nc1ccccc1Cl)c1cc2ccccc2o/c1=N\O | inconclusive: 39.8 µM [inhibitor, single point] | –
13 | O=C(NCc1ccco1)C1CN(S(=O)(=O)c2ccccc2)CCN1S(=O)(=O)c1ccccc1 (configuration not stated) | inconclusive: 79.4 µM [inhibitor, partial curve, poor fit] | –
10 | CCN(CCN(C)Cl)/[N+]([O-])=N/Oc1ccc([N+](=O)[O-])cc1[N+](=O)[O-] | inconclusive: 14.1 µM [inhibitor, partial curve, poor fit] | –

Next compounds follow:

Row | SMILES | Potency | activity, negative = inhibition
22 | CC(C)C1N=C2c3ccccc3N=C(SCC(=O)c3ccc(O)c(O)c3)N2C1=O (configuration not stated) | active: 1.41 µM | –
23 | C=Cc1ccc(Cn2c(C(=O)O)c(CNC3CCCCC3)c3ccc(OC)cc32)cc1 | inconclusive: 100 µM [inhibitor, single point] | –
24 | CCCOC1(C(F)(F)F)NC(=O)N(c2cccc(Cl)c2)C1=O (configuration not stated) | inconclusive: 100 µM [inhibitor, single point] | –
25 | O=C(/C=C/c1ccco1)NC(=S)Nc1ccccc1 | inconclusive: 79.4 µM [inhibitor, partial curve, poor fit] | –
26 | O=C(COc1ccccc1F)N1N=C(c2cccs2)CC1c1ccco1 (configuration not stated) | inconclusive: 79.4 µM [inhibitor, partial curve] | –
27 | NCCCC[C@@H]1NC(=O)[C@H](CCC(=O)O)NC(=O)c2cc([N+](=O)[O-])cc(I)c2SC[C@@H](C(=O)NCC(N)=O)NC1=O | inconclusive: 12.6 µM [inhibitor, partial curve, poor fit] | –
28 | CC(C)c1c(C(=O)N/N=C/c2cccs2)nnn1-c1nonc1N | inconclusive: 70.8 µM [inhibitor, partial curve] | –
29 | Cc1ccc2c(CC(=O)N3CCN(S(=O)(=O)c4ccc5c(c4)OCCO5)CC3)coc2c1 | – | inactive: -6.23%
30 | Cc1cc(C(=O)N/N=C/c2ccc(O)c([N+](=O)[O-])c2)n[nH]1 | inconclusive: 14.1 µM [inhibitor, partial curve, poor fit] | –
31 | CCCCC[C@@H]1C=C(C(=O)O)[C@H](c2ccc(CC)cc2)N1S(=O)(=O)c1ccc(C)cc1 | inconclusive: 39.8 µM [inhibitor, single point] | –
32 | Cc1ccc(S(=O)(=O)N2CCc3c2cc([N+](=O)[O-])cc3[N+](=O)[O-])cc1 | inconclusive: 28.2 µM [inhibitor, single point] | –
33 | CS(=O)c1ccc(/C=C2\C=Cc3ccccc32)cc1 (configuration not stated) | inconclusive: 89.1 µM [inhibitor, single point] | –
34 | CCOc1ccc2nc(N(CCN(C)C)C(=O)c3cc4ccccc4cc3OC)sc2c1 | inconclusive: 100 µM [inhibitor, partial curve, poor fit] | –
35 | O=C(N/N=C/c1ccc(Sc2ccccn2)o1)c1cc2ccccc2cc1O | active: 20 µM | –
36 | O=C(CSc1nc2[nH]c(=O)cc(O)c2s1)Nc1ccc(Br)cc1 | inconclusive: 56.2 µM [inhibitor, partial curve, poor fit] | –
37 | O=C(/C=C/c1ccc(Cl)c([N+](=O)[O-])c1)c1ccc(O)cc1 | inconclusive: 10 µM [inhibitor, full curve, poor fit] | –
38 | COc1ccc2cc(CN(CCCN3CCOCC3)Cc3nnnn3C3CCCC3)c(=O)[nH]c2c1 | – | inactive: 5.59%
39 | CCOc1ccccc1NC(=O)CSc1nc2nc(-c3cccs3)cc(C(F)(F)F)c2c(=O)[nH]1 | inconclusive: 3.55 µM [inhibitor, partial curve, poor fit] | –
40 | Cc1ccc(Cl)cc1N1CCN(C(=O)CSc2cc(=O)n(C)c3ccccc23)CC1 | – | inactive: -5.07%
41 | O=C(CSc1cn(CCNC(=O)c2cccc(C(F)(F)F)c2)c2ccccc12)Nc1ccc2c(c1)OCCO2 | inconclusive: 89.1 µM [inhibitor, single point] | –
42 | CC(C)c1ccccc1NC(=O)CNCCc1ccc(C(F)(F)F)cc1 | inconclusive: 89.1 µM [inhibitor, single point] | –

Row | SMILES | Potency | activity, negative = inhibition
43 | COC(=O)[C@H](Cc1ccccc1)NS(=O)(=O)N[C@@H](Cc1ccccc1)C(=O)OC | inconclusive: 100 µM [inhibitor, single point] | –
44 | O=C(Nc1nc2ccc(F)cc2s1)c1nc(S(=O)(=O)Cc2ccccc2F)ncc1Cl | inconclusive: 35.5 µM [inhibitor, single point] | –
45 | O=C(O)c1cccc(-c2ccc(/C=N/Nc3nn[nH]n3)o2)c1 | – | inactive: 26.5%
46 | CC(=O)Nc1cccc(NC(=O)Cc2cccs2)c1 | inconclusive: 70.8 µM [inhibitor, single point] | –
47 | Cc1ccc(N2NC3(CCN(C(N)=O)CC3)NC2=O)cc1 | – | inactive: 49.1%
48 | C[n+]1cc2c3c(ccc2c2ccc4cc5c(cc4c21)OCO5)OCO3 | active: 28.2 µM | –
49 | CCNC(=O)C1CCCN1C(=O)C(CCCN=C(N)N)NC(=O)C(CC(C)C)NC(=O)C(Cc1cn(Cc2ccccc2)cn1)NC(=O)C(Cc1ccc(O)cc1)NC(=O)C(CO)NC(=O)C(Cc1c[nH]c2ccccc12)NC(=O)C(Cc1cnc[nH]1)NC(=O)C1CCC(=O)N1 (configuration not stated) | inconclusive: 25.1 µM [inhibitor, partial curve] | –
50 | O=C(CCN1C(=O)c2ccccc2S1(=O)=O)N1CCN(c2ccc(F)cc2)CC1 | inconclusive: 89.1 µM [inhibitor, single point] | –
51 | CC1CCN(C(=O)CSc2nc(N)c3c4c(sc3n2)CN(C)CC4)CC1 | inconclusive: 22.4 µM [inhibitor, partial curve] | –
52 | COc1ccccc1N1CCN(C2CCCN(C(=O)c3cccc(-c4ccco4)c3)C2)CC1 (configuration not stated) | – | inactive: -8.15%
53 | Cc1ccc(S(=O)(=O)C(C#N)c2nc3ccccc3nc2N2CCCC2)cc1C (configuration not stated) | inconclusive: 35.5 µM [inhibitor, single point] | –
54 | CC(C)=NNc1ncnc2nc[nH]c12 | – | inactive: -8.97%
55 | COc1ccc(N(CC(=O)NC2CCCCC2)C(=O)CNC(=O)c2ccco2)cc1OC | inconclusive: 8.91 µM [inhibitor, single point] | –
56 | COc1ccccc1-c1cc2nc(C)c(CCC(=O)NCCc3cccc(C)c3)c(C)n2n1 | – | inactive: 9.4%
57 | O=c1nc(/C=C/c2cccn2-c2ccc([N+](=O)[O-])cc2)cc(C(F)(F)F)[nH]1 | active: 39.8 µM | –
58 | Oc1ccccc1C1C=C(c2ccc3c(c2)OCO3)NC(c2c(F)cccc2Cl)N1 (configuration not stated) | inconclusive: 15.8 µM [inhibitor, full curve] | –
59 | COC(=O)c1ccc(N)cc1O | – | inactive: 2.04%
60 | Cc1csc(SCC(=O)N(C)c2c(N)n(Cc3ccccc3)c(=O)[nH]c2=O)n1 | inconclusive: 8.91 µM [inhibitor, full curve, poor fit] | –
61 | O=[N+]([O-])c1ccccc1/C=C/CN1CCN(Cc2ccc3c(c2)OCO3)CC1 | inconclusive: 28.2 µM [inhibitor, partial curve, poor fit] | –
62 | COc1cc(C(=O)OCc2ccc([N+](=O)[O-])cc2)cc(OC)c1OC | inconclusive: 63.1 µM [inhibitor, single point] | –
